Hit rate of the full screen: of about 390,000 compounds, about 820 (0.21%) were called active. This list was built around the results that the source calls inconclusive (neither active nor inactive); the mix of calls is not that of the screen. Calls follow the shape of the dose curve; as a rule, active = well fitted inhibition curve with a large enough effect; inconclusive = small, poorly fitted or top-dose-only effect, or another doubt; inactive = no such curve, though single readings can be large or run the other way. Where the call is inconclusive, the potency comes from a doubtful curve fit.
What follows are compounds tested against Histone acetyltransferase KAT2A (Homo sapiens) (UniProt Q92830) (assay: qHTS Assay for Inhibitors of GCN5L2). Conditions: GCN5L2 HAT assay, ThioGlo1 CoA-SH fluorescence; activity change, negative = inhibition: at 58.9 µM (top of the series) unless noted.
Procedure, shortened: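 Compounds, pin-transferred from DMSO stocks, meet 20nM GCN5L2 for 15 min before the reaction begins with H3(1-25) peptide (75uM) and acetyl-CoA (70uM). Thiol-reactive ThioGlo1 reports CoA release over 20 min at room temperature.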
% is scaled to controls: 0 for no effect and ±100 for the full control effect; potency is read from the fitted curve at half-maximal effect.

Protein sequences, listed by entry. Tags and fused reporters are not part of them.
UniProt Q92830, whole entry, looked up: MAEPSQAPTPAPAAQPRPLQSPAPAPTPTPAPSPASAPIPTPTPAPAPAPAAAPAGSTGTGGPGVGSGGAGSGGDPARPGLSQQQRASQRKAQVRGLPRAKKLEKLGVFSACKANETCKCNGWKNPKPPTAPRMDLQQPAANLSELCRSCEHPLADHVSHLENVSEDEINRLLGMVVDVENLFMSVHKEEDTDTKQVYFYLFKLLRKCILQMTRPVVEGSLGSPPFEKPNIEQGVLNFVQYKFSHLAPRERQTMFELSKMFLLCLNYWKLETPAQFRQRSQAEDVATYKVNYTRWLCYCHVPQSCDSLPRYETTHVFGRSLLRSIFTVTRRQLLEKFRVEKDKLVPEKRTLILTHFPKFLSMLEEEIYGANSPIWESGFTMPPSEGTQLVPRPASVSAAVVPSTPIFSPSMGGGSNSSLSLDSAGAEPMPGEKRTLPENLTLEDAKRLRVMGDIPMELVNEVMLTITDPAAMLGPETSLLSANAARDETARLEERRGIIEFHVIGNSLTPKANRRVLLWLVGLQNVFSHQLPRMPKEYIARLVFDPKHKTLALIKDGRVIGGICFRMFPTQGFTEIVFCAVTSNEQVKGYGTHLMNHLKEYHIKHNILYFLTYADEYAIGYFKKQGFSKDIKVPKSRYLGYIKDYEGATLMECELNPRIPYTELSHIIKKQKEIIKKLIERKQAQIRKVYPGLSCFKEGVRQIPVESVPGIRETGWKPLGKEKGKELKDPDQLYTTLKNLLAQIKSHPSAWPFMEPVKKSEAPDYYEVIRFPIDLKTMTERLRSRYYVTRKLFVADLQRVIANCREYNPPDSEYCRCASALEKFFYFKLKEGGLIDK

Row | SMILES | Potency | activity change, negative = inhibition
1 | O=C(CN1CCOCC1)Nc1ccc2c(c1)OCCO2 | inconclusive: 8.91 µM [inhibitor, single point] | 
2 | COc1ccc(NC2c3ccccc3C(=O)N2Cc2ccc3c(c2)OCO3)cc1 (configuration not stated) | inconclusive: 20 µM [inhibitor, single point] | 
3 | CCCCc1n[nH]c2c1/C(=N/O)CC(c1ccccc1)C2 (configuration not stated) | inconclusive: 12.6 µM [inhibitor, partial curve, poor fit] | 
4 | Cc1nc(NC(=O)c2ccccc2)sc1Cc1ccc2c(c1)OCO2 |  | inactive: -4.61%
5 | Cc1cccc(NC(=S)N(CCCN(C)C)Cc2cc3cc4c(cc3[nH]c2=O)OCO4)c1 | inconclusive: 39.8 µM [inhibitor, single point] | 
6 | CC(C)C[C@H](NC(=O)c1nc[nH]c1C(=O)N[C@@H](CC(C)C)C(=O)OC(C)(C)C)C(=O)OCc1ccccc1 | inconclusive: 8.91 µM [inhibitor, full curve, poor fit] | 
7 | CC(C)c1ccccc1NC(=O)C1CC(=O)N(C2CCCC2)C1 (configuration not stated) | inconclusive: 14.1 µM [inhibitor, partial curve, poor fit] | 
8 | CCC(C)NC(=S)Nc1ccc2nc(N3CCN(CC)CC3)cc(C)c2c1 (configuration not stated) |  | inactive: -1.5%
9 | COc1ccc(/C=N/NC(=O)c2cc3c(ccc4ccccc43)o2)c(OC)c1 | inconclusive: 39.8 µM [inhibitor, single point] | 
10 | Oc1c(-c2cc(-c3ccco3)[nH]n2)ccc2ccccc12 | inconclusive: 39.8 µM [inhibitor, single point] | 
11 | CC(=O)N/C(=C\c1ccc2c(c1)OCO2)C(=O)NC(C(=O)O)c1ccccc1 (configuration not stated) | inconclusive: 0.447 µM [inhibitor, partial curve, poor fit] | 
12 | CC(C)Cn1c(N)c(C(=O)COC(=O)c2cc(-c3ccco3)nc3ccccc23)c(=O)n(C)c1=O | inconclusive: 2.51 µM [inhibitor, partial curve] | 
13 | Cc1cccc(N(C)S(=O)(=O)c2ccc3c(c2)C(C)(C)C(=O)N3C)c1 |  | inactive: 0.654%
14 | CC1=NN(c2ccc(C)cc2C)C(=O)C1C(c1cccc(O)c1)C1C(=O)N(c2ccc(C)cc2C)N=C1C (configuration not stated) |  | inactive: 27.3%
15 | CC(C)C[C@H](NC(=O)c1[nH]cnc1C(=O)N[C@@H](C)C(=O)OC(C)(C)C)C(=O)OCc1ccccc1 | inconclusive: 2.24 µM [inhibitor, partial curve] | 
16 | COc1ccc(CN(C)C(=O)c2cccc(S(=O)(=O)N3CCN(c4ccccc4)CC3)c2)c(OC)c1OC | inconclusive: 35.5 µM [inhibitor, single point] | 
17 | COc1ccc(OC)c(CCNC(=O)c2ccc3c(=O)[nH]c4c(C(=O)NC(C)C)sc(=S)n4c3c2)c1 |  | inactive: -25.5%
18 | Cc1cccc2cc(/C=N/NC(=O)c3ccccc3O)c(Cl)nc12 | inconclusive: 22.4 µM [inhibitor, partial curve] | 
19 | CCOC(=O)/C=C/C(=O)Nc1ccc(Oc2ccccc2)cc1 | inconclusive: 39.8 µM [inhibitor, single point] | 
20 | CCC1CC2CC(NC(C)=O)C1C2 (configuration not stated) | inconclusive: 39.8 µM [inhibitor, single point] | 
21 | O=C(Nc1nc(-c2cccs2)cs1)c1ccc(S(=O)(=O)N2CCCCC2)cc1 |  | inactive: -9.27%

Row | SMILES | Potency | activity change, negative = inhibition
22 | Cc1ccc(/C=C2/C(=O)ON=C2c2ccccc2)o1 | inconclusive: 28.2 µM [inhibitor, single point] | 
23 | Nc1c(C(O)(C(F)(F)F)C(F)(F)F)ccc2ccccc12 |  | inactive: -3.46%
24 | CCOc1ccc(Nc2nc3cc(S(=O)(=O)CC)ccc3o2)cc1 | inconclusive: 2.82 µM [inhibitor, full curve, poor fit] | 
25 | O=[N+]([O-])c1ccccc1S(=O)(=O)N1CCN(CC2CC3C=CC2C3)CC1 (configuration not stated) |  | inactive: -9.62%
26 | CC(C)C(NC(=O)OCc1ccccc1)C(=O)OCC(=O)NCc1ccco1 (configuration not stated) | inconclusive: 11.2 µM [inhibitor, partial curve, poor fit] | 
27 | O=C(NC(=S)NC1CCCCC1)c1ccc(Cl)cc1 | inconclusive: 20 µM [inhibitor, partial curve, poor fit] | 
28 | COc1ccc(-c2cc3ccc(O)c(CN4CCOCC4)c3oc2=O)cc1 | inconclusive: 39.8 µM [inhibitor, single point] | 
29 | O=C(Nc1ccc(-c2csc(Nc3cccc(C(F)(F)F)c3)n2)cc1)c1ccccc1 |  | inactive: -3.58%
30 | CCN(CC(=O)NCc1ccc(Cl)cc1)C(=O)C(C)Sc1ccccc1 (configuration not stated) | inconclusive: 31.6 µM [inhibitor, single point] | 
31 | NC1=NC(=O)/C(=C\c2ccc(O)c([N+](=O)[O-])c2)S1 |  | inactive: -11.2%
32 | Clc1ccc(-n2c(SC/C=C/c3ccccc3)nnc2-c2cccnc2)cc1 |  | inactive: -1.43%
33 | O=C(NCCc1ccccc1)/C(=C/c1ccco1)c1ccccc1 |  | inactive: -19.6%
34 | O=[N+]([O-])c1cc(-c2ccc(C(=S)N3CCOCC3)o2)ccc1Cl | inconclusive: 31.6 µM [inhibitor, partial curve] | 
35 | Cc1ccc(Nc2c3c(nc4nncn24)CCC3)cc1C |  | inactive: -0.999%
36 | Cc1ccc(S(=O)(=O)/N=C2\C(=O)c3ccccc3C([O-])=C2n2cc[n+](CCC(C)C)c2)cc1 | inconclusive: 35.5 µM [inhibitor, single point] | 
37 | O=C(Cc1nnc(NC(=O)c2cccc([N+](=O)[O-])c2)s1)NCc1ccccc1 | inconclusive: 0.126 µM [inhibitor, full curve, poor fit] | 
38 | N=c1c(S(=O)(=O)c2ccccc2)cc2c(=O)n3ccccc3nc2n1Cc1ccco1 | inconclusive: 22.4 µM [inhibitor, partial curve] | 
39 | Cn1nc(C(=O)OCC(=O)N2CCc3ccccc32)c2ccccc2c1=O | inconclusive: 6.31 µM [inhibitor, single point] | 
40 | O=C1OCCN1C(=O)[C@H]1[C@H](c2ccc(F)cc2)C(c2ccc(F)cc2)=NN1c1ccccc1 | inconclusive: 28.2 µM [inhibitor, single point] | 
41 | O=C(COC(=O)c1ccccc1NC(=O)c1ccco1)Nc1ccc2c(c1)OC(F)(F)O2 | inconclusive: 6.31 µM [inhibitor, single point] | 
42 | COc1cccc(-c2nnc(SCC(=O)NCc3ccc4c(c3)OCO4)n2Cc2ccco2)c1 | active: 39.8 µM | 

3 structures from above, sorted by molar mass, descending:
Row | SMILES | Potency | activity change, negative = inhibition
41 | O=C(COC(=O)c1ccccc1NC(=O)c1ccco1)Nc1ccc2c(c1)OC(F)(F)O2 | inconclusive: 6.31 µM [inhibitor, single point] | 
23 | Nc1c(C(O)(C(F)(F)F)C(F)(F)F)ccc2ccccc12 |  | inactive: -3.46%
22 | Cc1ccc(/C=C2/C(=O)ON=C2c2ccccc2)o1 | inconclusive: 28.2 µM [inhibitor, single point] | 
